Results are given in words; binding and its absence hold for the method and conditions named. Binding calls can cover weak binding; strength is not graded here.
Legend:
[1] = biological target: Bos Taurus Pregnancy-associated glycoprotein 20 (Bos taurus); test: 2D9 immuno-affinity chromatography, LC-MS-MS
[2] = biological target: Bos Taurus Pregnancy-associated glycoprotein 21 (Bos taurus); test: 2D9 immuno-affinity chromatography, LC-MS-MS
[3] = biological target: Bos Taurus Pregnancy-associated glycoprotein 4 (Bos taurus); test: 2D9 immuno-affinity chromatography, LC-MS-MS
[4] = biological target: Bos Taurus Pregnancy-associated glycoprotein 6 (Bos taurus); test: 2D9 immuno-affinity chromatography, LC-MS-MS
[5] = biological target: Bos Taurus Pregnancy-associated glycoprotein 9 (Bos taurus); test: 2D9 immuno-affinity chromatography, LC-MS-MS
[6] = biological target: Bos Taurus Pregnancy-associated glycoprotein 17 (Bos taurus); test: 2D9 immunoaffinity column, LC/MS/MS of gel bands
[7] = biological target: Bos Taurus Pregnancy-associated glycoprotein 19 (Bos taurus); test: 2D9 immunoaffinity column, LC/MS/MS of gel bands
[8] = biological target: Bos Taurus Pregnancy-associated glycoprotein 17 (Bos taurus); test: 2D9 immunoaffinity column, day 55 caruncle, LC/MS/MS
[9] = biological target: Bos Taurus Pregnancy-associated glycoprotein 21 (Bos taurus); test: as above
[10] = biological target: Bos Taurus Pregnancy-associated glycoprotein 4 (Bos taurus); test: as above
[11] = biological target: Bos Taurus Pregnancy-associated glycoprotein 6 (Bos taurus); test: as above
[12] = biological target: Bos Taurus Pregnancy-associated glycoprotein 9 (Bos taurus); test: as above
[13] = biological target: Bos Taurus Pregnancy-associated glycoprotein 17 (Bos taurus); test: 2D9 immunoaffinity column, day 215 caruncle, LC/MS/MS
[14] = biological target: Bos Taurus Pregnancy-associated glycoprotein 19 (Bos taurus); test: as above
[15] = biological target: Bos Taurus Pregnancy-associated glycoprotein 21 (Bos taurus); test: as above
[16] = biological target: Bos Taurus Pregnancy-associated glycoprotein 4 (Bos taurus); test: as above
[17] = biological target: Bos Taurus Pregnancy-associated glycoprotein 6 (Bos taurus); test: as above
[18] = biological target: Bos Taurus Pregnancy-associated glycoprotein 9 (Bos taurus); test: as above
[19] = biological target: Bos Taurus Pregnancy-associated glycoprotein 17 (Bos taurus); test: 2D9 immunoaffinity column, day 55 cotyledon, LC/MS/MS
[20] = biological target: Bos Taurus Pregnancy-associated glycoprotein 19 (Bos taurus); test: as above
[21] = biological target: Bos Taurus Pregnancy-associated glycoprotein 21 (Bos taurus); test: as above
[22] = biological target: Bos Taurus Pregnancy-associated glycoprotein 4 (Bos taurus); test: as above
[23] = biological target: Bos Taurus Pregnancy-associated glycoprotein 6 (Bos taurus); test: as above
[24] = biological target: Bos Taurus Pregnancy-associated glycoprotein 9 (Bos taurus); test: as above
[25] = biological target: Bos Taurus Pregnancy-associated glycoprotein 17 (Bos taurus); test: 2D9 immunoaffinity column, day 215 cotyledon, LC/MS/MS
[26] = biological target: Bos Taurus Pregnancy-associated glycoprotein 19 (Bos taurus); test: as above
[27] = biological target: Bos Taurus Pregnancy-associated glycoprotein 21 (Bos taurus); test: as above
[28] = biological target: Bos Taurus Pregnancy-associated glycoprotein 4 (Bos taurus); test: as above
[29] = biological target: Bos Taurus Pregnancy-associated glycoprotein 6 (Bos taurus); test: as above
[30] = biological target: Bos Taurus Pregnancy-associated glycoprotein 9 (Bos taurus); test: as above
[31] = biological target: Bos Taurus Pregnancy-associated glycoprotein 6 (Bos taurus); test: immunoprecipitation and 2D9 immuno-affinity chromatography, LC-MS-MS
[32] = biological target: Bos Taurus Pregnancy-associated glycoprotein 17 (Bos taurus); test: 2D9 immunoaffinity column, day 55 caruncle/cotyledon combined, LC/MS/MS
[33] = biological target: Bos Taurus Pregnancy-associated glycoprotein 19 (Bos taurus); test: as above
[34] = biological target: Bos Taurus Pregnancy-associated glycoprotein 4 (Bos taurus); test: as above
[35] = biological target: Bos Taurus Pregnancy-associated glycoprotein 6 (Bos taurus); test: as above
[36] = biological target: Bos Taurus Pregnancy-associated glycoprotein 9 (Bos taurus); test: as above
[37] = biological target: Bos Taurus Pregnancy-associated glycoprotein 17 (Bos taurus); test: 2D9 immunoaffinity column, day 215 caruncle/cotyledon combined, LC/MS/MS
[38] = biological target: Bos Taurus Pregnancy-associated glycoprotein 21 (Bos taurus); test: as above
[39] = biological target: Bos Taurus Pregnancy-associated glycoprotein 4 (Bos taurus); test: as above
[40] = biological target: Bos Taurus Pregnancy-associated glycoprotein 6 (Bos taurus); test: as above
[41] = biological target: Bos Taurus Pregnancy-associated glycoprotein 9 (Bos taurus); test: as above
[42] = biological target: Bos Taurus Pregnancy-associated glycoprotein 6 (Bos taurus); test: immunoprecipitation with 2D9-coupled magnetic beads, SDS-PAGE, LC-MS-MS
[43] = biological target: Bos Taurus Pregnancy-associated glycoprotein 17 (Bos taurus); test: 2D9 immunoaffinity column on day 55 and day 215 placental tissues, LC/MS/MS
[44] = biological target: Bos Taurus Pregnancy-associated glycoprotein 19 (Bos taurus); test: as above
[45] = biological target: Bos Taurus Pregnancy-associated glycoprotein 20 (Bos taurus); test: LC/MS/MS peptide sequencing of 2D9-purified PAGs from day 55 placental tissues
[46] = biological target: Bos Taurus Pregnancy-associated glycoprotein 21 (Bos taurus); test: as above
[47] = biological target: Bos Taurus Pregnancy-associated glycoprotein 4 (Bos taurus); test: as above
[48] = biological target: Bos Taurus Pregnancy-associated glycoprotein 6 (Bos taurus); test: as above
[49] = biological target: Bos Taurus Pregnancy-associated glycoprotein 9 (Bos taurus); test: as above
[50] = biological target: Bos Taurus Pregnancy-associated glycoprotein 20 (Bos taurus); test: 2D9 immuno-affinity chromatography of day 55 tissue extracts, LC-MS-MS of bands 1 & 4
[51] = biological target: Bos Taurus Pregnancy-associated glycoprotein 9 (Bos taurus); test: 2D9 immuno-affinity chromatography of day 55 tissue extracts, LC-MS-MS of bands 2 & 5
[52] = biological target: Bos Taurus Pregnancy-associated glycoprotein 21 (Bos taurus); test: 2D9 immuno-affinity chromatography of day 55 tissue extracts, LC-MS-MS of bands 3, 5 & 7
[53] = biological target: Bos Taurus Pregnancy-associated glycoprotein 6 (Bos taurus); test: 2D9 immuno-affinity chromatography of day 55 tissue extracts, LC-MS-MS of bands 1, 2, 4 & 5
[54] = biological target: Bos Taurus Pregnancy-associated glycoprotein 4 (Bos taurus); test: 2D9 immuno-affinity chromatography of day 55 tissue extracts, LC-MS-MS of bands 3, 5, 6 & 7

Measured: binding

B1: monoclonal antibody 2D9 (antibody, mouse IgG1, kappa, V domains shown)
VH: QVQLQQSGAELMKPGASVKISCKATGYIFSNYWMEWVKQRPGHGLEWIGEILPGSDITNYNEKFKDKATFTADSSSNTAYMQLSSLTSEDSAVYYCARAGSGYYGVYYYAMDYWGQGTSVTVSS
VL: DVLMTQTPLSLPVSLGDQASISCRSRQSIVHSNGNTYLEWFLQKPGQSPKLLIYKVSNRFSGVPDRFSGSGSGTDFTLKISRVEAEDLGVYYCFQGSHVPLTFGAGTKLELKR
binds: all assays above

— patent US20110076705A1
